Results as given in patent US20110038790A1.
No constants are given. Whether binding was seen depends on the method and setting. Some binding calls cover weakened binding; strength is not graded here.

Tests used:
Assay in all cases: competition ELISA
[1] = target: murine monoclonal antibody 8G9
[2] = target: murine monoclonal antibody 7D8
[3] = target: murine monoclonal antibody 2A4

Measured: binding

B1: human AA amyloid (renal AA amyloid extract or tissue deposits) (protein, UniProt P0DJI8 19-94, looked up)
chain: RSFFSFLGEAFDGARDMWRAYSDMREANYIGSDKYFHARGNYDAAKRGPGGAWAAEVITDARENIQRFFGHGAEDS
binds: [1] | [2] | [3]

B2: murine AA amyloid (AA fibrils, amyloid enhancing factor extract or tissue deposits) (protein, mouse, UniProt P05367 20-94, looked up)
chain: GFFSFIGEAFQGAGDMWRAYTDMKEAGWKDGDKYFHARGNYDAAQRGPGGVWAAEKISDARESFQEFFGRGHEDT
binds: [1] | [2] | [3]
